Library screening results

Measurements from “University of Dundee, Small-Polar-MMV Screening Library” (2021), ChEMBL document CHEMBL3988442.

A: 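Whole-cell assay for inhibitors of Mycobacterium tuberculosis growth, labelled Cornell in the record; the read-out is not stated. The concentration is filed as 10 mM, unlikely as a test dose, so the dose is not known. Higher means stronger inhibition (inferred from two other growth screens of the library). Of about 53,000 compounds tested this way, about 900 (1.7%) reached 50% or more in at least one test.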
B: 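Assay on Mycobacterium tuberculosis, filed only as a heat shock assay from Cornell; the read-out is not stated. The concentration is filed as 10 mM, unlikely as a test dose, so the dose is not known. The record gives no direction; compounds that gave an IC50 in retests scored well above the rest, so higher reads as stronger inhibition. Size under these conditions: about 69,000 compounds, about 930 of them at 50% or above in at least one test.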

Results are given as percent effect.
The controls that fix the scale are not given in the record; negative values are as filed.
The compounds are a random part of those screened.
A dash means the value is not listed here; it may have been measured.

| compound | A | B |
|---|---|---|
| `Cn1nc(C(=O)N(CC(F)(F)F)c2cccc(Cl)c2)ccc1=O` | -19.69% | -20.86% |
| `COCC1c2c(cnn2C)CCN1Cc1ccco1.O=C(O)C(F)(F)F.O=C(O)C(F)(F)F` (stereo not drawn) | -21% | -42.16% |
| `O=C(O)C(F)(F)F.O=C(O)C(F)(F)F.[H][C@@]12CN(CC3CC3)C[C@]1([H])[C@H](OC)CCN2S(=O)(=O)c1cccnc1` | 25.78% | -1.199% |
| `Cc1cnn(CC2CCCN2C(=O)c2c(F)cccc2Cl)c1` (stereo not drawn) | - | -12.77% |
| `CC(C)c1nccc(CN2CCCC(O)(CN3CCCC3)C2)n1` (stereo not drawn) | -33.52% | 3.593% |
| `[H][C@@]12CC[C@@]([H])(C1)N(CC(=O)N1CCc3c(nc(N(C)C)nc3N(C)C)C1)C2` | 6.928% | 13.62% |
| `[H][C@@]12C[C@@H](c3nnc(C)[nH]3)O[C@]1([H])CN(S(=O)(=O)c1cccc(C)c1)C2` | -10.6% | 21.32% |
| `CCN1CC(C(=O)N2CCN(c3cnn(C)c(=O)c3)CC2)CCC1=O` (stereo not drawn) | -31.46% | 1.02% |
| `Cc1nc(CNc2ccccc2CCC(F)(F)F)cs1` | 27.65% | -9.757% |
| `CCn1nccc1C(=O)Nc1nc(C)c(C(C)=O)s1` | 37.96% | 6.638% |
| `CN(C)c1ncc2c(n1)C1(CCN(Cc3ccccc3F)C1)COC2.O=C(O)C(F)(F)F` (stereo not drawn) | 10.56% | -6.613% |
| `O=C(CN1CCCC1Cn1cncn1)NCCOc1cccc(F)c1` (stereo not drawn) | 25.08% | -20.46% |
| `O=C(CN1CCCC(Cn2cncn2)C1)NCCOc1ccccc1` (stereo not drawn) | - | 3.984% |
| `CCCS(=O)(=O)NCC1OCCc2cn(CC3CCOCC3)nc21` (stereo not drawn) | -24.84% | -12.38% |
| `Cl.Cl.c1c(CN2CCCCC2)nc2n1CCNC2` | -59.68% | -30.5% |
| `Cc1cccc(-c2nc(C)nn2CN2CCC3(CC2)OCCO3)c1` | - | 7.268% |
| `CC(CNC(=O)c1ccc(C#N)cc1)N1CCc2ccccc21` (stereo not drawn) | 20.43% | 25.19% |
| `CC(=O)N1CCC(c2ncc(C(=O)Nc3ccc(F)cc3)c(C)n2)CC1` | 4.765% | -29.13% |
| `CC(=O)N1CCCC(c2ncncc2-c2ccncc2)C1` (stereo not drawn) | -14.85% | 9.723% |
| `CCn1cnnc1CCNc1nc(C)cc(C)c1C#N` | -16.9% | -7.298% |
| `[H][C@]12CN(CCOC)C(=O)[C@@]1([H])CN(c1cnccn1)C2` | -7.877% | 18.91% |
| `COc1ccc(Cl)cc1NCC(=O)NCCNc1ncccn1` | -54.88% | -18.91% |
| `CC(C)CN(Cc1ccc(O)c(C(=O)O)c1)Cc1cnn(C)c1` | - | 9.581% |
| `Cc1cc(C(=O)N2CCN(c3nc4c(F)cccc4s3)CC2)no1` | 2.481% | 70.89% |
| `CN(Cc1cc(Br)cn1C)C(=O)c1ccon1` | 19.98% | -8.88% |
| `CC(=O)N(Cc1ncc(C)o1)C1CCN(Cc2cc(C)on2)C1` (stereo not drawn) | - | 6.692% |
| `CCc1noc(C(C)N2CCCN(Cc3noc(C4CC4)n3)CC2)n1` (stereo not drawn) | - | -14.32% |
| `CC(=O)N1CCCC(c2nnc3n2CCN(C(=O)C2CCCCC2)C3)C1` (stereo not drawn) | -5.264% | -5.788% |
| `CNc1cc(CCNC(=O)CC(C)C)nc(-c2ccccn2)n1` | 53.37% | 36.61% |
| `CC(=O)N1Cc2ccccc2OC2(CCN(C(=O)C3CCOC3)CC2)C1` (stereo not drawn) | -5.503% | 20.61% |
| `O=C1OCCN1CCN1CCCN(Cc2ccccc2F)CC1` | 6.518% | 0.1025% |
| `CC(C)c1nc(CN2CCCN(c3nccs3)CC2)no1` | - | -5.425% |
| `O=C(CN1CCCCC1)NCc1cccnc1-n1cnc2ccccc21` | - | -13.45% |
| `Clc1cc(CN2CCCN3CCCC3C2)c2ncccc2c1` (stereo not drawn) | 58.38% | 99% |
| `CC(=O)NCCNC(=O)c1cnc2c(c1)nc(-c1ccccc1Cl)n2C` | - | 3.707% |
| `COc1ccc(OC)c(C(=O)N(C)Cc2nnc3ccccn23)c1` | - | 10.07% |
| `CC(C)(C)c1ncc(C(=O)NCCNC(=O)c2ccc(O)cc2)s1` | -13.3% | -5.454% |
| `CN1CCCCC1c1ccc(-n2ccnc2)nc1` (stereo not drawn) | -13.98% | 17.33% |
| `Cl.NC(=O)N1CC2(CCNCC2)c2cc(Cl)ccc21` | 10.2% | -14.1% |
| `Cc1occc1C(=O)NCC(=O)N1CCCC(c2ccccc2)CC1` (stereo not drawn) | 4.804% | -9.371% |
| `COCc1ccccc1CNC(=O)CNc1cccc(Cl)c1OC` | 17.8% | 10.42% |
| `CN1CCCC(c2cccc(-c3cccc(Cl)c3)n2)C1` (stereo not drawn) | -0.792% | -13.07% |
| `CCc1ncc(C(=O)NCC2CCN(Cc3ccncc3)CC2)cn1` | -9.785% | 12.11% |
| `CNC(=O)c1cc2c(nc1NCC(C)C)CCN(S(=O)(=O)N(C)C)CC2` | 19.5% | -25.34% |
| `COc1ccc(NC(=O)c2ccoc2C)c(N2CCN(C(C)=O)CC2)n1` | -44.13% | -19.47% |
| `Cc1ncsc1C(=O)OCC1CCN(c2ccccc2)C1` (stereo not drawn) | 1.349% | -31.21% |
| `CC(C)c1noc(C(C)N2CCN(Cc3cccs3)CC2)n1` (stereo not drawn) | -15.21% | -7.703% |
| `COCCN(CCOC)C(=O)c1cnn(C)c1C` | -17.79% | -5.373% |
| `CC1(C(=O)N2CCN(c3cnccn3)CC2)CNCCO1` (stereo not drawn) | -46.72% | -13.95% |
| `O=C1CN(c2ccc(CNC(=O)Nc3nnc(C4CC4)s3)cc2)CCN1` | -38.95% | -3.142% |
| `Cc1cc2occ(CC(=O)N3CCC(O)(CN(C)C)C3)c2cc1Cl` (stereo not drawn) | 4.921% | 2.958% |
| `Cc1cc(CS(=O)(=O)C(C)C(=O)N(C)c2ccccc2)on1` (stereo not drawn) | -17.42% | -9.224% |
| `COCC1CN(Cc2ccc(C)o2)Cc2nnn(CC3CC3)c21.O=C(O)C(F)(F)F` (stereo not drawn) | 8.178% | -10.28% |
| `COc1ccc(C2C3=C(CCCC3=O)Nc3nc(SC)nc(N)c32)cc1` (stereo not drawn) | 2.971% | 1.331% |
| `COCCN(C)C[C@@H]1CN(C(=O)c2ccc(OC)c(F)c2)C[C@@H]1CO` | 3.272% | 15.9% |
| `N#Cc1ccccc1CC1CCCS(=O)(=O)C1` (stereo not drawn) | - | -28.67% |
| `Cn1c(CN2CCCCC2)nnc1C1CCCN(C(=O)CCC(N)=O)C1` (stereo not drawn) | - | -1.792% |
| `COc1ccc(-c2cc(C3CCCCCN3S(C)(=O)=O)on2)cc1` (stereo not drawn) | 39.05% | -3.173% |
| `CSCCC(=O)NCc1cc2n(n1)CCCN(C1CCCCC1)C2` | -41.97% | 35.87% |
| `COCCN1CC[C@H](OC)[C@@H]1Cc1ccccc1.O=C(O)C(F)(F)F` | -2.277% | 5.315% |
| `CSc1ccccc1C(=O)C1CCCN(Cc2ccccn2)C1` (stereo not drawn) | -0.095% | 13% |
| `CCCNC(=O)C1CCCN(Cc2ccc(-n3cncn3)c(C)c2)C1` (stereo not drawn) | 6.831% | 6.325% |
| `Cc1cc(NC(=O)N2CCCC(O)C2)nn1-c1ccccc1Cl` (stereo not drawn) | - | -6.96% |
| `COCCNC(=O)NCc1ccc(-n2ccc(C(F)(F)F)n2)cc1` | 19.4% | -3.079% |
| `CCc1nnc2n1CCN(C(=O)Cc1csc(-c3ccco3)n1)C2` | 24.05% | 16.73% |
| `O=C(O)C(F)(F)F.[H][C@@]12COC[C@]1(C(=O)NCCc1ccccc1)CN(Cc1cnn(C)c1)C2` | - | -18.43% |
| `Cc1ccc(CNC(=O)C2CCN(C(=O)c3ccco3)CC2)n1C` | -17.06% | 2.373% |
| `CCN(CC1CCOC1)C(=O)c1cn2ccc(C)cc2n1` (stereo not drawn) | - | -13.92% |
| `CC(CN1CCOCC1)NC(=O)c1cc(Cl)c2c(c1)OCCO2` (stereo not drawn) | 5.515% | 5.191% |
| `O=C(O)C(F)(F)F.O=C(O)C(F)(F)F.O=C(O)C(F)(F)F.[H][C@]12CCN(Cc3cccnc3)[C@@]1([H])CC[C@H](COCc1ccccn1)O2` | 18.96% | -1.879% |
| `COc1ccc(Cl)cc1CN(C)C(=O)CN1C(=O)CCC1C` (stereo not drawn) | -38.38% | -9.356% |
| `Cc1ccc(N2CCC3(CCN(C(=O)N(C)C)CC3)CC2)nn1.O=C(O)C(F)(F)F` | - | 0.5325% |
| `CCOc1cccc(COC(=O)c2cscn2)n1` | 94.28% | 16.02% |
| `[H][C@]12CC[C@]([H])(CN(C3Cc4ccccc4C3)C1)N(C(=O)C1CCOCC1)C2` | - | 2.081% |
| `CN1CCCC(c2nc3c([nH]2)CC(C)(C)CNC3=O)C1` (stereo not drawn) | -13.99% | -0.5007% |

Repeated from the top, 7 entries:

compound	A	B
Cn1nc(C(=O)N(CC(F)(F)F)c2cccc(Cl)c2)ccc1=O	-19.69%	-20.86%
COCC1c2c(cnn2C)CCN1Cc1ccco1.O=C(O)C(F)(F)F.O=C(O)C(F)(F)F (stereo not drawn)	-21%	-42.16%
O=C(O)C(F)(F)F.O=C(O)C(F)(F)F.[H][C@@]12CN(CC3CC3)C[C@]1([H])[C@H](OC)CCN2S(=O)(=O)c1cccnc1	25.78%	-1.199%
Cc1cnn(CC2CCCN2C(=O)c2c(F)cccc2Cl)c1 (stereo not drawn)	-	-12.77%
CC(C)c1nccc(CN2CCCC(O)(CN3CCCC3)C2)n1 (stereo not drawn)	-33.52%	3.593%
[H][C@@]12CC[C@@]([H])(C1)N(CC(=O)N1CCc3c(nc(N(C)C)nc3N(C)C)C1)C2	6.928%	13.62%
[H][C@@]12C[C@@H](c3nnc(C)[nH]3)O[C@]1([H])CN(S(=O)(=O)c1cccc(C)c1)C2	-10.6%	21.32%